Reference: paper doi:10.1101/829226

Sequences of proteins named here, by UniProt entry; tags and fusion partners are left off. A change or cut given only in a name is not applied to a line headed by its entry.
UniProt O23628: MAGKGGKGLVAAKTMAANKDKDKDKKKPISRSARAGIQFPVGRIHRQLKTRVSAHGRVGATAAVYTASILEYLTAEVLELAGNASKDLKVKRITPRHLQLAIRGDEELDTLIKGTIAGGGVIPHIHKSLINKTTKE

B1: DEK2 (protein, UniProt Q84JB7 1-530)
chain: MATETLDEKTPEVNSPAKEEIDVVPKEEKEVEKEKVDSPRIGEAEEEKKEDEEEGEAKEGELGEKDKEDDVESEEEEEEEEGSGSKKSSEKETVTPTSERPTRERKKVERFSLSTPMRAPPSKSVSIEKGRGTPLREIPNVAHKLSKRKADDNLMLLHTILFGKKAKAQMVKRNIGQFSGFAWSEKEEEKQRARIKEKIDKCVKEKLIVFCDVLDIPISRSNVKKEELAVKVLEFLESPKETRDVIIADQEKAKKRKSTPKRGKSGESSDTPAKRKRQTKKRDLPSDTEEGKDEGDADSEGTNDPHEEDDAAPEEESDHEKTDTDDEKDEVEVEKPSKKKSSSKKTVEESSGSKGKDKQPSAKGSARSGEKSSKQIAKSTSSPAKKQKVDHVESSKEKSKKQPSKPQAKGSKEKGKATKKGKAKAEPTRKEMLEVVSKILKEVDFNTATLSDILQKLSDHFGVELSHRKPEVKDVITEAINAMTDDEEEDEEEEAEAGSDKEKEEVKGEEEEEKAEAESDKEKEKEEPKD
B2: DEK-DOMAIN CONTAINING PROTEIN3 (DEK3) (protein, UniProt Q9SUA1 1-763)
chain: MGEDTKATIEPTANKTTSLEKPSEAMAGKENAGGKETQELAKDEDMAEPDNMEIDAQIKKDDEKAETEDKESEVKKNEDNAETQKMEEKVEVTKDEGQAEATNMDEDADGKKEQTDDGVSVEDTVMKENVESKDNNYAKDDEKETKETDITEADHKKAGKEDIQHEADKANGTKDGNTGDIKEEGTLVDEDKGTDMDEKVENGDENKQVENVEGKEKEDKEENKTKEVEAAKAEVDESKVEDEKEGSEDENDNEKVESKDAKEDEKEETNDDKEDEKEESKGSKKRGKGTSSGGKVREKNKTEEVKKDAEPRTPFSDRPVRERKSVERLVALIDKDSSKEFRVEKGRGAYLKDIPNVANKVMRKRSDETLKLLHPILFGGRRGKAAQIKTNILGFSGFVWHGDEKKAKEKVKEKLEKCTKEKLWEFCDVLDIHITKATTKKEDIITKLFEFLEKPHVTGDVTGDTTVSEKEKSSKGAKRKRTPKKTSPTAGSSSSKRSAKSQKKSEEATKVVKKSLAHSDDESEEEKEEEEKQEEEKAEEKEEKKEEENENGIPDKSEDEAPQPSESEEKDESEEHSEEETTKKKRGSRLSAGKKESAGRARNKKAVVAAKSSPPEKITQKRSSAKRKKTDDDSDTSPKASSKRKKSENPIKASPAPSKSASKEKPVKRAGKGKDKPSDKVLKNAIVEILKRVDFSTATFTDILKELAKEFTEDLTPRKSSIKMIIQEELTKLADEEEEEEKKEEDSEKEEAGGSGGGEEVKA
B3: DEK4 (protein, UniProt F4K4Y5 1-778)
chain: MGEEDTKVIVEPTANGTSSLQKTSDAISGKEVQENASGKEVQESKKEEDTGLEKMEIDDEGKQHEGESETGDKEVEVTEEEKKDVGEDKEQPEADKMDEDTDDKNLKADDGVSGVATEEDAVMKESVESADNKDAENPEGEQEKESKEEKLEGGKANGNEEGDTEEKLVGGDKGDDVDEAEKVENVDEDDKEEALKEKNEAELAEEEETNKGEEVKEANKEDDVEADTKVAEPEVEDKKTESKDENEDKEEEKEDEKEESMDDKEDEKEESNDDDKEDEKEESNDDKEDKKEDIKKSNKRGKGKTEKTRGKTKSDEEKKDIEPKTPFFSDRPVRERKSVERLVAVVDKDSSREFHVEKGKGTPLKDIPNVAYKVSRKKSDEVFKQLHTILFGGKRVKATQLKAHILRFSGYKWQGDEEKAKLKVKEKFEKINKEKLLEFCDLFDISVAKATTKKEDIVTKLVEFLEKPHATTDVLVNEKEKGVKRKRTPKKSSPAAGSSSSKRSAKSQKKTEEATRTNKKSVAHSDDESEEEKEDDEEEEKEQEVEEEEEENENGIPDKSEDEAPQLSESEENVESEEESEEETKKKKRGSRTSSDKKESAGKSRSKKTAVPTKSSPPKKATQKRSAGKRKKSDDDSDTSPKASSKRKKTEKPAKEQAAAPLKSVSKEKPVIGKRGGKGKDKNKEPSDEELKTAIIDILKGVDFNTATFTDILKRLDAKFNISLASKKSSIKRMIQDELTKLADEAEDEEGEEEDAEHEEEEEKEKAKGSGGGEEVKA

Target: HTA11-FLAG (H2A.Z) (Arabidopsis thaliana) (UniProt O23628)
Experiment: affinity purification with mass spectrometry

binding, binds:
B1
B2
B3

Results are given in words; binding and its absence hold for the method and conditions named. Binding seen in cells or lysates may run through a third protein. These calls come from enrichment with a bait or labelling near it, and not all partners need be listed.
